Source: patent US20140302034A1 (STEM CENTRX, published 2014)
Results are given in words; binding and its absence hold for the method and conditions named. Some results given as binding are weak or reduced against the parent protein; the word gives no strength.

T1: mouse EFNA3 (mouse, UniProt O08545)
T1 construct: the sheet prints only 'Ms XR'; also called mouse ephrin-A3 homolog
T1 sequence (ligand, looked up): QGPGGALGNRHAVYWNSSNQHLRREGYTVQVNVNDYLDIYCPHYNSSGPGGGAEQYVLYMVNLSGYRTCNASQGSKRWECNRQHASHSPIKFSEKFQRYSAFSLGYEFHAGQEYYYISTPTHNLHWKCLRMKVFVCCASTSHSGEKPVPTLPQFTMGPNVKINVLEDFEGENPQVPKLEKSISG

B1: SC9.20 (antibody, V domains shown)
VH: DVQLQESGPGLVKPSQSLSLTCSVTGYSITSGYYWNWIRQFPGNRLEWMAYISYDGSNDYNPSLKNRISITRDTSKNQFFLKLNSVTTEDTATYYCARGYPILFAYWGQGTLVTVSA
VL: DIKMTQSPSSMNASLGERVSITCKTSQDINSYLSWLQQKPGKSPKTLIYRANRLVDGVPSRFSGSGSGQDYSLTISSLEYEDMGIYYCLQYDEFPLTFGIGTKLELK
B2: SC11.51 (antibody, V domains shown)
VH: EVQLQQSGPELVKPGASVKISCKASGYTFTDYYMNWVKQTHGKSLEWIGDITPNSGGPTYNQNFKGKATLTVDRSSTTAFMELRSLTSDDSAVYYCVRSAYYYGTNYDFDYWGQGTTLTVSS
VL: QIVLTQSPAIMSASPGEKVTMTCSASSSVTYMYWYQQKPGSSPKPWIYRTSNLASGVPTRFSGSGSGTSYSLTISSVEAEDTATYYCQQYSDYPLTFGAGTKLELK
notes: Murine monoclonal antibody from a hybridoma; also called EFNA3 modulator SC11.51

How the values were obtained:
[1] = molecular target: cynomolgus EFNA1 (cynomolgus); experiment: ForteBio, concentration series of recombinant monomeric cynomolgus ephrin-A1
mouse EFNA3 = molecular target: T1, mouse EFNA3; experiment: cross-reactivity with the mouse homolog (e.g. by ForteBio)

Binder	binding [1]	binding (mouse EFNA3)
B1	binds	
B2		binds
